Test results from PubChem BioAssay AID1347423 (Functional Genomics Laboratory (NCATS/FGL), 2020).
Among all 52,000 sequences or so, about 210 (0.4%) were called active.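 How the source made its calls: active means gene whose silencing raises cell survival under the drug, median off-target-corrected z-score across its silencing RNAs 2 or more; inactive means the rest.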 The list shows a part of the results.

Assay: Resistance to Poly (ADP-Ribose) Polymerase inhibitor: Gene Identification via Genome-wide siRNA Screen
Conditions: mouse BRCA2 R2336H ES cells, olaparib, CellTiter-Glo viability; hits give high values
How it was run: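 Mouse BRCA2 R2336H ES cells were reverse-transfected with siRNA (20 nM final), treated at 48 h with 500 nM olaparib, and read by CellTiter-Glo after 72 h. Scores: MAD-based z per siRNA, median per gene, seed off-target correction.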
With “GGAAGAUGGGCAAGAUGAUTT against 1200013B08Rik” the z-score was inactive: -3.01.
For GGCAACAAUGGUUGUCUUGTT against Ctsr, the z-score was inactive: -0.194.
With GGCCAACGUGGAGUUAUCATT against Hadh2 the z-score was inactive: 1.85.
With GGAACAAUAUAUCUUCAUCTT against Ptpru the z-score was inactive: 0.255.
For GGAUCUGGUGAAACUAGCUTT against Psmd4, the z-score was inactive: -3.33.
With GGGCUAUGCCUACUACACUTT against Fn3k the z-score was inactive: 0.584.
With CCUUUCCCUCCAUUUAGGGTT against Sit the z-score was inactive: 0.484.
In the case of GGAGUGAUAGUCAUCAAUGTT against Olfr357, the z-score is reported as inactive: 2.03.
In the case of “GGAGACCAGGAAUAAUUGUTT against 5330438I03Rik”, the z-score is reported as inactive: -0.139.
With GGGCAUAGAUUAGUCUUUATT against Ing1l the z-score was inactive: -2.01.
In the case of GGACCAACGUGCAGAAAUGTT against Metrn, the z-score is reported as inactive: 0.653.
For GGCCAUCGUCUUGAAGAAGTT against Cdca5, the z-score was inactive: -1.42.
In the case of GGACUUUAGAGUUCGCCAUTT against BC026778, the z-score is reported as inactive: 1.19.
For GCGAACUCAAACAGUUAAATT against Clca3, the z-score was inactive: -0.354.
In the case of CCUUUAUGGGACACUAUUUTT against Alb1, the z-score is reported as inactive: -2.
In the case of CCCAGAGCUGUUAUUUAAATT against Ripk3, the z-score is reported as inactive: 0.0114.
For GGAAACAAAUGAGUUGCUGTT against Stx12, the z-score was inactive: -0.369.
For CUGCGAGGCUUUUUAAAUGTT against Prr7, the z-score was inactive: 0.0676.
For GGUAUUGGUCCAAUUUUUCTT against Gng7, the z-score was inactive: -0.642.
With GGAAAGCUUUCUAUUACAATT against BB114266 the z-score was inactive: -1.24.
With GCCGUUUAAACAGUUCAACTT against T2bp the z-score was inactive: 0.212.
For GGUGUGAACUCCUUCCUGGTT against Dpysl4, the z-score was inactive: 2.28.
With CGAGAAGAUAUUUAAAGAGTT against Myo10 the z-score was inactive: 0.642.
In the case of CCCUGAUGAAUAAGGACUCTT against Kif17, the z-score is reported as inactive: 0.643.
In the case of GGUCACCUGGGUAUUUAUGTT against Tead3, the z-score is reported as inactive: 0.596.
In the case of GGAGAAGAAGGAGAGGAUGTT against Myo18a, the z-score is reported as inactive: -2.22.
With GGCUUGAUGGGCUUUUUGCTT against Ndufb8 the z-score was inactive: 0.31.
In the case of GGUCUUCCUUGAACAUCAGTT against Fev, the z-score is reported as inactive: 0.96.
For GGAUCUCAAUGUUCACUUGTT against Bpil1, the z-score was inactive: -1.3.
With GUCCGUCUCGGAGAAAUGUTT against BC018462 the z-score was inactive: -0.175.
With “GGCACAAAUUUUAUGCCUGTT against 4931440N07Rik” the z-score was inactive: 0.336.
With GCUAGUAUUGAGCAACAACTT against Rnh1 the z-score was inactive: 1.08.
In the case of GCUCAGUUUAUACCAAAAUTT against Api5, the z-score is reported as inactive: -2.14.
With GGUAAAGAAAGACGACCACTT against Ppap2c the z-score was inactive: -0.518.
In the case of “GCUCAUACAUGGUGGACUATT against 1700011F03Rik”, the z-score is reported as inactive: -2.21.
In the case of GGGAGAACUUAGCACGAAUTT against Polr2h, the z-score is reported as inactive: -1.02.
In the case of GGAACCUUAGAUGUUACUUTT against Scara3, the z-score is reported as inactive: -0.21.
For GGAUCCACAGAGAAACCCUTT against Gfi1b, the z-score was inactive: 0.954.
For CCAUCGUCCAAAGUACAUGTT against Rbp4, the z-score was inactive: 0.453.
In the case of CCUGAGUAACAUUGCCGUGTT against Mgat1, the z-score is reported as inactive: -0.251.
For “GGACAAGAACUUAGUGAUGTT against 1500005A01Rik”, the z-score was inactive: 1.02.
With GGAUGCUGAGCUUUCUGACTT against Fchsd1 the z-score was inactive: 0.259.
For GGCUUUCUCAUAUAACUCCTT against Mest, the z-score was inactive: -0.367.
For GCAGUAGCCGGAAGAUAACTT against Itln2, the z-score was inactive: 0.684.
For CGGAUUAGUAUAAAUGUAGTT against Prss16, the z-score was inactive: -1.01.
With CCUCUCACACACCAUAACATT against Polm the z-score was inactive: 0.584.
In the case of GAAAACCAGCAUAAAGUCUTT against Mlr1, the z-score is reported as inactive: 2.7.
With CCUAACCAUUGCUUAUAUATT against Stat1 the z-score was inactive: 1.26.
In the case of CCUUUUCCAUGCCUACUCCTT against Bag3, the z-score is reported as inactive: -0.0599.
With GGAUGUUGUUUAUCGAGGATT against Surb7 the z-score was inactive: 1.28.
With “GGAAUUCUUGAAGAUUCCCTT against C920001D21Rik” the z-score was inactive: 0.398.
In the case of CCUACGUGAUAUCCUUUUATT against Vrk1, the z-score is reported as inactive: 0.149.
With GGUUCCAUGUUCAGAAUUUTT against Dibd1 the z-score was inactive: 1.21.
In the case of GGCAGGAGAGGCAUCUUUUTT against Arhgap20, the z-score is reported as inactive: 0.596.
In the case of GGACCCUGAACAGACAACGTT against Asna1, the z-score is reported as inactive: 1.04.
For GGAAUCCUUGGACCUGAGGTT against Tnni3, the z-score was inactive: -1.08.
In the case of “GGAGAACACUUUAAUGCUGTT against 9230106D23Rik”, the z-score is reported as inactive: 0.667.
In the case of CCAGACAGAAGGGUUAGCUTT against Mrps36, the z-score is reported as inactive: -2.45.
With GGCUGGAACCCUAAUUUCUTT against Tpo the z-score was inactive: -0.559.
In the case of GCGAGAUCUGUCCUUACAGTT against Ildr1, the z-score is reported as inactive: 0.234.
With GCAAUUAAUAGAAUUAGCCTT against Slc8a1 the z-score was inactive: 0.233.
With GGAAGCCUGAAACUCAGCATT against Srpk1 the z-score was inactive: -0.676.
For GCUAUAUGACAACCUCAGCTT against Slamf8, the z-score was inactive: -0.289.
With CCAUUCUCAGGCAAAUACUTT against AL024069 the z-score was inactive: -0.944.
In the case of GGCUUCACAAGGACCUUUGTT against BC024139, the z-score is reported as inactive: -1.96.
For GCAUGUUUUACAGUGUUCATT against Lgr7, the z-score was inactive: 0.314.
In the case of GGCGGAGGAUCUUACUAUCTT against Foxf1a, the z-score is reported as inactive: 0.486.
In the case of GGCCAUGGUCAUGGACAUGTT against Itpr3, the z-score is reported as inactive: 0.814.
For GGCGGUUAAACCACAGCGUTT against Snapap, the z-score was inactive: 0.387.
With “GGAGGAGCAUCCUUCAACUTT against A230020G22Rik” the z-score was inactive: 2.82.
In the case of GGGCUCUUUAUCCUUUCCUTT against Cer1, the z-score is reported as inactive: -0.322.
For “GGAGGAACAUAUGCUCAGATT against 1110031B11Rik”, the z-score was inactive: -3.44.
In the case of GGAGGAAAGAAUCGAUUUATT against Slc5a4a, the z-score is reported as inactive: -0.139.
For GCUGAUCAAGGACUAUCGGTT against Ywhaq, the z-score was inactive: -0.347.
For ACAACAUGAUUGUCGUGGATT against Ugt1a6, the z-score was inactive: 0.282.
For GGAAAAUUGGAACAAUCCATT against Sval2, the z-score was inactive: 0.272.
In the case of CUCAGUUCUUCUUCUUUUCTT against Olfr12, the z-score is reported as inactive: 0.475.
In the case of CCAAAGAUGCUGGUAGAUUTT against Olfr1140, the z-score is reported as inactive: -0.721.
In the case of “GGUAUUUCCGGAUCUUCAUTT against 9130011J15Rik”, the z-score is reported as inactive: -1.32.
For GGAGUGUGAUCAAGUUCAUTT against Eya4, the z-score was inactive: 0.648.
In the case of GCAGUGUUUUACGACUUGATT against BC030477, the z-score is reported as inactive: 1.08.
For “GGAACCGUAGCUUGUCUGCTT against 1110029E03Rik”, the z-score was inactive: 0.223.
In the case of CCUCGUAGGGCCUAUGGUATT against Pscd4, the z-score is reported as inactive: 0.776.
In the case of GGCCCAAACUUACAGCUGUTT against Ptges2, the z-score is reported as inactive: 0.594.
With “GCAUUCAUCAGGGUUGAUUTT against 2310040A13Rik” the z-score was inactive: -0.137.
For GCUACCUAAUGAAGAGGCCTT against Rgnef, the z-score was inactive: 0.256.
For CCUACUUGACGAAGGCCUATT against Ndufb10, the z-score was inactive: 0.0845.
For GGAAAAGAAGAGGAAAUUCTT against Smarce1, the z-score was inactive: -1.01.
With GGGUCUCCAAUCCCUCAGUTT against Kirl2 the z-score was inactive: -0.351.
For GAACGGGCAUAUGUUCAACTT against Mgst3, the z-score was inactive: -0.404.
In the case of GGCAUUCCUACAGUUCAGATT against Mrpl46, the z-score is reported as inactive: 1.18.
For “GGAGCCUGAAUGCUGUAUUTT against 1700063I17Rik”, the z-score was inactive: 0.415.
With “GGGCAAUACUAAAUAAAAGTT against 4933439F18Rik” the z-score was inactive: 0.225.
With GGAGAAGGUAGUUCUGAAATT against Slc7a11 the z-score was inactive: -1.61.
In the case of “CCUCCACUUGCCAUAUUGUTT against 5730559C18Rik”, the z-score is reported as inactive: -0.99.
With GGCCGACAAGCGAUCAAAATT against AU040829 the z-score was inactive: -0.237.
With CCUUUUCACAGAGAGCUGCTT against Tex264 the z-score was inactive: -1.1.
For CCUAAUGUACACUAACUAUTT against Dhrs10, the z-score was inactive: 0.688.
For GGUAGCAAAUCCAACAAGATT against Slamf1, the z-score was inactive: -0.727.
For GCAAGACCCAAGAGUUACATT against Soat2, the z-score was inactive: 0.14.
With GGAGAAGACCUGAUUCCAGTT against Zfx the z-score was inactive: -1.22.
In the case of GGAAAAAAAGGAGUGGGCATT against Klra6, the z-score is reported as inactive: -0.0179.
For GGAGUUUUGGGUGAUGAUATT against Olfr974, the z-score was inactive: -2.33.
For CCGUAUCGAUGUGACAUAUTT against Zfp94, the z-score was inactive: 1.5.
With GCCUUUAUACUAGCAGCCATT against Olfr827 the z-score was inactive: 0.361.
